No constants are given. Whether binding was seen depends on the method and setting. In cells and extracts the contact can be indirect. These calls come from enrichment with a bait or labelling near it, and not all partners need be listed.
Biological target: T1, Nrf2 (mouse (endogenous in primary astrocytes)) (UniProt Q60795)
T1 sequence: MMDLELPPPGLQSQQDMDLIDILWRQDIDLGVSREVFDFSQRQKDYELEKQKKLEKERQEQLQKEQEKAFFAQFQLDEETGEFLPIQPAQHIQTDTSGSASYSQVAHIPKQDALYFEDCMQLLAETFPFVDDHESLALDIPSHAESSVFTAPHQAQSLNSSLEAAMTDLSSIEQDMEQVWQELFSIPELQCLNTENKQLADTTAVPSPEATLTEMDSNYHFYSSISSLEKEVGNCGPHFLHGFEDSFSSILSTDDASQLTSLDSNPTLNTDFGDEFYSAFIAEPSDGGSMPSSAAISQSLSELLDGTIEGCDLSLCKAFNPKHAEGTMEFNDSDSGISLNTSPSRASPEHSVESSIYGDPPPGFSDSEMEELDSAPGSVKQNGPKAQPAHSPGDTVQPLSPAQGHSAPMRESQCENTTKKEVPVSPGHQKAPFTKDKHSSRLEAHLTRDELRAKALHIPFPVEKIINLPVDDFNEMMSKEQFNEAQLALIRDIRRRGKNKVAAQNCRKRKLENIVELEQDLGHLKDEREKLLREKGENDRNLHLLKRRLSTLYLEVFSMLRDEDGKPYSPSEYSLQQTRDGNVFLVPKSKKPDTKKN
Experiment: affinity purification with mass spectrometry; anti-Nrf2 immunoprecipitate from primary astrocytes with or without quinpirole (DRD2 activation); label-free mass spectrometry, triplicates

By UniProt entry, the sequences of proteins in these tests, tags left out.
UniProt P52480: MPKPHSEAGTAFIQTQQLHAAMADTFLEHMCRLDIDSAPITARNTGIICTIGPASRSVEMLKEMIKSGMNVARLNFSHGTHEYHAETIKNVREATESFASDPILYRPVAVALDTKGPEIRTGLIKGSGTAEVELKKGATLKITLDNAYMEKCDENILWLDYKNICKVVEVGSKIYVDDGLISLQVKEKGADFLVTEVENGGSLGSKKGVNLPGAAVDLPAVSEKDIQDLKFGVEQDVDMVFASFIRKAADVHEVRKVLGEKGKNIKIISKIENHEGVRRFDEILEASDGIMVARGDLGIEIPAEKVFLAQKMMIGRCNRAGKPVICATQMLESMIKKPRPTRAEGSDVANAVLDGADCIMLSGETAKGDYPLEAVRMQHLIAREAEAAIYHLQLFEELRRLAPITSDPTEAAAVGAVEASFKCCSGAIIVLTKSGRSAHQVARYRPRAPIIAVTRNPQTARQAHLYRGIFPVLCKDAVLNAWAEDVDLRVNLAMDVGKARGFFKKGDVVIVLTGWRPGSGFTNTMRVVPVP

## PKM2 (from UniProt P52480 1-531) (enzyme)
  binding: binds
